# Percent effect of library compounds

Mtb glucose medium: 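Growth of Mycobacterium tuberculosis over 3 days (7H9 medium with glucose and tyloxapol); the read-out is not stated. Concentration: 50 µM. The record gives no direction; compounds that gave an IC50 in retests scored well above the rest, so higher reads as more growth inhibition. Of about 69,000 compounds tested this way, about 760 (1.1%) reached 50% or more in at least one test.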
Mtb cholesterol medium: 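Phenotypic screen: M. tuberculosis growth, cholesterol and DPPC medium, 4 days; the read-out is not stated. Tested at 50 µM. Direction is inferred from retests: higher values go with more growth inhibition. Size under these conditions: about 69,000 compounds, about 370 of them at 50% or above in at least one test.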

Each number is a percent effect as filed. How 0% and 100% were set is not recorded. Most values in the screen are low, and negative values occur. The compounds are a random part of those screened. Two or more numbers in one place are separate tests of the same structure; such repeats can differ widely.

| structure | Mtb glucose medium | Mtb cholesterol medium |
|---|---|---|
| `Cc1nn(C)c(N(C)C)c1CNCc1ccc(Cn2cncn2)cc1` | -27.87 | -38.38 |
| `Cc1cc(NCCn2cccn2)n2ncnc2n1` | -17.47 | -19.16 |
| `CCc1nc(-c2ccc(NC(=O)N3CCC4(CC3)OCCO4)cc2)no1` | 12.14 | -10.56 |
| `[H][C@@]12COC[C@H](C(=O)N3CCOCC3)[C@]1([H])CN(C1CCCC1)C2` | 10.45 | -10.7 |
| `Cn1cc(C(=O)N2CCCC(c3ncc[nH]3)C2)cn1` (centres undefined) | -0.08064 | -17.7 |
| `[H][C@@]12CCN(c3ncccn3)[C@]1([H])CC[C@H](c1nc(C)no1)O2` | 10.76 | 7.435 |
| `Cc1cnc(CNCc2cnc(-c3ccccc3C)s2)cn1` | -12.45 | 7.027 and -10.58 |
| `Cc1cccc(N2CCOCC3(C2)CN(c2cnn(C)c2)C(=O)CO3)n1.O=C(O)C(F)(F)F` (centres undefined) | 37.52 | -6.523 |
| `Cn1nc(C(=O)N2CCCCC2c2nc3cc(F)ccc3[nH]2)ccc1=O` (centres undefined) | -2.825 and -21.67 | -21.44 |
| `OCCCNc1cccc(COC2CCCCC2)c1` | 17.87 | -45.64 |
| `CCc1nnc2n1CCN(C(=O)c1ccc3c(c1)NC(=O)CO3)C2` | -2.553 | -30.08 |
| `Cc1c(F)cccc1S(=O)(=O)N(C)CC(C)O` (centres undefined) | -30.47 and -2.458 | -0.6068 |
| `CS(=O)(=O)NCc1cc(=O)n2c(n1)CN(Cc1ccco1)CCC2.O=C(O)C(F)(F)F` | 14.66 and -6.777 | 16.57 |
| `CC1CCN(CC(=O)N(C)CCc2noc(C3CC3)n2)C1=O` (centres undefined) | 22.89 | -2.824 |
| `CC(CNC(=O)Nc1ccc(N(C)C)nc1)Cn1cccn1` (centres undefined) | -45.9 and -13.87 | -16.3 |
| `Clc1ccccc1-c1cc(CNc2ncnc3c2CCNCC3)no1` | 46.98 | 1.366 |
| `CCCN1CCC(N(C)CCC(=O)Nc2ccccc2SC)CC1` | -23.97 | -11.35 |
| `Cc1cnn(CC2CN(CC(=O)Nc3cccnc3)CCO2)c1` (centres undefined) | 10.25 | 9.257 |
| `CCc1ccccc1CNC(=O)NCc1cnn(C)c1` | 5.681 and 21.28 | -28.61 |
| `CN(CCc1ccccc1)C1CCCN(Cc2nccn2C)C1` (centres undefined) | -6.224 | -6.886 |
| `CCCn1ccnc1CN1CCCC(CC)(CO)C1` (centres undefined) | -17.78 | -10.4 |
| `[H][C@@]12CS(=O)(=O)C[C@]1([H])N(C(=O)Cc1ccc(O)c(F)c1)CCN2CC1CC1` | 17.91 | -7.839 |
| `[H][C@]12CC[C@]([H])(CN(C(=O)N(C)C)C1)N(C(=O)c1c(Cl)cccc1Cl)C2` | 12.63 | 6.405 |
| `Cc1noc(NC(=O)c2ccc(F)cc2)n1` | 36.12 | -4.074 |
| `[H][C@@]12CCN(Cc3cnn(C)c3)C[C@@]1([H])O[C@@H](c1nc(C)cs1)C2` | 8.46 and 0.52 | -1.674 |
| `CCCC(=O)N1CCC2(CC1)COC2` | -4.261 | 13.53 |
| `CC1CCCCN1C(=O)CCn1cnc2sccc2c1=O` (centres undefined) | -14.92 | -9.828 |
| `O=C(Nc1nccs1)c1csc(NC2CCCC2)n1` | 71.6 and 67.57 | 54.87 |
| `COc1cn(-c2ccccc2)nc1C(=O)NCCCN1CCCC(C)C1` (centres undefined) | 8.589 | 12.76 |
| `CCOC(C)c1nc(Cn2cc(C(=O)NC)ccc2=O)cs1` (centres undefined) | -20.14 | -23.17 |
| `O=C(Cn1nnn(-c2cccs2)c1=O)N(CC1CCOC1)C1CC1` (centres undefined) | -4.54 and -5.325 | -19.78 |
| `CNC(=O)c1cn[nH]c1C1(C)CCCN(CC2(O)CCCCC2)C1` (centres undefined) | 11.62 | 7.946 |
| `Cc1ccccc1C1(CNC(=O)c2ccc(S(C)(=O)=O)cc2)CC1` | -5.923 | 1.798 |
| `Cc1cccc(CN2CCC3(CCCN(Cc4cnn(C)c4)C3)C2)n1.O=C(O)C(F)(F)F.O=C(O)C(F)(F)F` (centres undefined) | 1.018 | -12.57 |
| `COc1cccc(OCCNS(C)(=O)=O)c1` | 4.399 | 1.78 |
| `Cl.[H][C@@]12CN(C3CCCCC3)CC[C@]1([H])N(C(=O)C1CCC1)C[C@H]2c1ccsc1` | 16.37 | 12.19 |
| `Cc1cc(C(=O)NC(C)CC(=O)c2cccs2)n(C)n1` (centres undefined) | 13.63 | -8.286 |
| `CN1CCN(C[C@@H]2CN(C(=O)CCc3cn[nH]c3)C[C@@H]2CO)CC1` | 25 | 9.553 |
| `CC/C=C(/C)C(=O)NS(=O)(=O)c1ccc(C#N)cc1C(F)(F)F` | -18.61 | -6.242 |
| `Cc1ccc(C(=O)N2CCCN(C)c3ccc(F)cc32)o1` | -13.77 | -5.557 |
| `O=C(O)C(F)(F)F.O=C1NC2(CCN(C(=O)c3ccccc3)CC2)CC1c1cccnc1` (centres undefined) | 19.97 | 1.445 |
| `CCOc1cccc(CNc2ccccc2C(F)(F)F)c1O` | 20.26 | -9.289 |
| `Cc1cn2cc(C(=O)NC3CCCN(c4ncccn4)C3)ccc2n1` (centres undefined) | -35.62 | -9.324 |
| `Cc1cc(CC(=O)NC(C)c2ccc(OCC3CC3)c(F)c2)n[nH]1` (centres undefined) | -2.806 | 1.744 |
| `CN(CCOc1ccc(C#N)cc1)CC1CCS(=O)(=O)C1` (centres undefined) | 0.3626 | -7.017 |
| `CS(=O)(=O)NCC1CCN(C(=O)Oc2ccccc2)CC1` | 1.294 | 18.19 |
| `Cc1cc(C)c(CCNC(=O)NCCCC(N)=O)c(C)c1` | -9.781 | -12.36 |
| `Cl.NC(=O)CCc1cccc(C2CCNCC2)n1` | -21.55 | -10.44 |
| `CC(NCCc1nccn1Cc1ccccc1)c1ccsc1` (centres undefined) | -0.6058 and -17.35 | -2.55 |
| `NC(=O)CCN(CC(=O)NCc1ccccn1)c1ccc(F)cc1` | -0.5274 | -5.97 |
| `O=C1CCC(C(=O)Nc2cnn(-c3ccccc3Br)c2)N1` (centres undefined) | 17.17 | 3.706 |
| `COCCN1CCc2ccccc2NCCC1=O` | -21.4 | -9.981 |
| `Cn1nc2c(c1NC(=O)c1cccs1)CCC2` | 2.107 | -5.815 |
| `O=C(O)C(F)(F)F.O=C(O)C(F)(F)F.[H][C@@]12OCCN(Cc3ccc(OC)cc3)[C@@]1([H])CC[C@H]2Oc1ccccn1` | 11.49 and 8.455 | 4.364 |
| `CSCCC(Nc1nc(C)cc(C)n1)C(=O)NC(C)(C)CO` (centres undefined) | -20.27 | -10.52 |
| `CCS(=O)(=O)c1nccn1-c1cccc(F)c1` | 30.47 | 5.224 |
| `CCn1c(NCc2ccccn2)nc2c(C)nn(C)c2c1=O` | 1.032 | 16.12 |
| `O=C(O)C(F)(F)F.[H][C@]12CCC[C@@]1(COc1ccccn1)CN(C(=O)c1cocn1)C2` | -3.747 | 4.424 |

Repeated from the top, 4 entries:

structure	Mtb glucose medium	Mtb cholesterol medium
Cc1nn(C)c(N(C)C)c1CNCc1ccc(Cn2cncn2)cc1	-27.87	-38.38
Cc1cc(NCCn2cccn2)n2ncnc2n1	-17.47	-19.16
CCc1nc(-c2ccc(NC(=O)N3CCC4(CC3)OCCO4)cc2)no1	12.14	-10.56
[H][C@@]12COC[C@H](C(=O)N3CCOCC3)[C@]1([H])CN(C1CCCC1)C2	10.45	-10.7

Data taken from ChEMBL document CHEMBL3988442, “University of Dundee, Small-Polar-MMV Screening Library” (2021).